Reference: patent publication US20110275559A1, “Long-Acting Y2 and/or Y4 Receptor Agonists” (Novo Nordisk A/S, priority 2008, published 2011)
At least one structure is not confirmed: it was looked up by name or label, or the drawing left a doubt. Marks after values point to notes of the source that are not given here. *1 amine or outer side, *2 acyl side, *3 side chain or, on linkers, in order; H or OH if unused. Where a SMILES comes first, the peptide text is derived from it. Side-chain parts run from the residue outwards. The star is where a group is joined. C20 diacid = O=C(O)CCCCCCCCCCCCCCCCCCC(=O)*; γGlu = O=C(O)[C@H](CCC(=O)[*:2])N[*:1]; Trx = NC[C@H]1CC[C@H](C(=O)O)CC1; AEEA = NCCOCCOCC(=O)O

Tested on: lean C57BL/6 mice
Assay: Acute food intake in fasted lean mice (BioDAQ, fasting-induced refeeding)
Assay type: in vivo
Description: Acute food intake in mice: Lean C57BL male mice are obtained from Charles River, Japan. They are maintained on a 12:12 light:dark cycle (lights off at 10:00 AM, lights on at 10:00 PM), fed pelleted D12450B rodent diet (Research Diets, Inc., New Brunswick, N.J.), and allowed water ad libitum. The mice arrive at 7-8 weeks of age and are acclimatized in the BioDAQ system a minimum of two weeks prior to study. On the day of study, mice are 9-12 weeks old. They are fasted overnight (20-24 h) with free access to water. The day of the study, mice are dosed with s.c. injection (dose volume=10 mL/kg), returned to their cage, and pre-weighed food is immediately placed in the cage. […] When the mice eat the weight reduction of the content of the food-tray is registered. Data is registered each time there is a change in the weight of the individual food-tray. Cumulative food intake is calculated by subtracting the food weight at each time point from the starting food weight.
Mice were administrated a single dose of the peptides (1 μmol/kg s.c.) 30 min before food return and cumulative food intake was measured over 24 h. […] One way ANOVA was carried for each time point out using the software Graph-Pad Prism, version 5.0. The statistical method used for the data in FIG. 1A was an unpaired t-test using the software Graph-Pad Prism, version 5.0. The statistical method used for the data in FIG. 1B and Table 4 was ANOVA, Dunnetts post hoc. Stars in FIGS. 1A and 1B indicate significance versus the vehicle group *) p<0.05, **) p<0.01, ***) p<0.001.
Studies were conducted to evaluate the acute effects of PP and PYY analogues on food intake compared to vehicle. Fasted lean C57BL/6 mice were administrated a single subcutaneous injection of vehicle or peptide approximately 30 min before food return and the cumulative food intake was measured subsequently. One way ANOVA was carried out for each time point using the software Graph-Pad Prism, version 5.0.

Row | SMILES | effect in reducing food-intake compared to unmodified human PYY(3-36) (Example 5, lean fasted-refed C57BL/6 mice, 1 μmol/kg s.c.) | Mean cumulative food intake (Table 4, lean fasted-refed C57BL/6 mice, single 1.0 μmol/kg s.c., 1 hour after injection, vehicle 0.41) [g] | Mean cumulative food intake (Table 4, mice, 1.0 μmol/kg s.c., 2 hours after injection, vehicle 0.70) [g] | Mean cumulative food intake (Table 4, mice, 1.0 μmol/kg s.c., 3 hours after injection, vehicle 1.17) [g] | Mean cumulative food intake (Table 4, mice, 1.0 μmol/kg s.c., 4 hours after injection, vehicle 1.48) [g] | Mean cumulative food intake [g] (Table 4, mice, 1.0 μmol/kg s.c., 6 hours after injection, vehicle 1.90) | Mean cumulative food intake [g] (Table 4, mice, 1.0 μmol/kg s.c., 8 hours after injection, vehicle 2.42) | Mean cumulative food intake [g] (Table 4, mice, 1.0 μmol/kg s.c., 12 hours after injection, vehicle 3.59) | Mean cumulative food intake [g] (Table 4, mice, 1.0 μmol/kg s.c., 24 hours after injection, vehicle 4.41) | Mean cumulative food intake (Table 5, Study 6A, fasted lean C57BL/6 mice, single 1.0 μmol/kg s.c., 4 hours after injection, vehicle 1.51) [g] | Mean cumulative food intake [g] (Table 5, Study 6A, mice, 1.0 μmol/kg s.c., 6 hours after injection, vehicle 2.04) | Mean cumulative food intake [g] (Table 5, Study 6A, mice, 1.0 μmol/kg s.c., 8 hours after injection, vehicle 2.61) | Mean cumulative food intake [g] (Table 5, Study 6A, mice, 1.0 μmol/kg s.c., 12 hours after injection, vehicle 3.49) | Mean cumulative food intake [g] (Table 5, Study 6A, mice, 1.0 μmol/kg s.c., 24 hours after injection, vehicle 4.35) | Mean cumulative food intake [g] (Table 5, Study 6A, mice, 1.0 μmol/kg s.c., 36 hours after injection, vehicle 8.41) | Mean cumulative food intake (Table 5, Study 6A, mice, 1.0 μmol/kg s.c., 48 hours after injection, vehicle 8.87) [g]
1 | CC[C@H](C)[C@H](NC(=O)[C@H](Cc1ccc(O)cc1)NC(=O)[C@H](CCCNC(=N)N)NC(=O)[C@H](CCCNC(=N)N)NC(=O)[C@H](CC(C)C)NC(=O)[C@H](CC(=O)O)NC(=O)[C@H](C)NC(=O)[C@H](C)NC(=O)[C@H](Cc1ccc(O)cc1)NC(=O)[C@H](CCC(N)=O)NC(=O)[C@H](C)NC(=O)[C@H](CC(C)C)NC(=O)[C@H](CCC(N)=O)NC(=O)[C@H](CCC(=O)O)NC(=O)[C@@H]1CCCN1C(=O)[C@H](CCCCNC(=O)COCCOCCNC(=O)COCCOCCNC(=O)CC[C@H](NC(=O)[C@H]1CC[C@H](CNC(=O)CCCCCCCCCCCCCCCCCCC(=O)O)CC1)C(=O)O)NC(=O)[C@H](C)NC(=O)[C@H](CC(N)=O)NC(=O)[C@H](CC(=O)O)NC(=O)CNC(=O)[C@@H]1CCCN1C(=O)[C@H](Cc1ccc(O)cc1)NC(=O)[C@@H](NC(=O)[C@@H]1CCCN1C(=O)[C@H](CCC(=O)O)NC(=O)[C@H](CC(C)C)NC(=O)[C@@H]1CCCN1C(=O)[C@H](C)N)C(C)C)C(=O)N[C@@H](CC(N)=O)C(=O)N[C@@H](CC(C)C)C(=O)N[C@@H](CC(C)C)C(=O)N[C@H](C(=O)N[C@@H](CCCNC(=N)N)C(=O)N[C@@H](CCC(N)=O)C(=O)N[C@@H](CCCNC(=N)N)C(=O)N[C@@H](Cc1ccc(O)cc1)C(N)=O)[C@@H](C)O [SEQ ID NO: 4] (H-APLEPVYPGDNAK([AEEA-AEEA-γGlu-Trx-C20 diacid])PEQLAQYAADLRRYINLLTRQRY-NH2; N-terminus and C-terminus assumed) | prolonged | 0.33 | 0.59 | 0.84 | 1.07 | 1.29* g | 1.42** g | 2.14*** g | 2.88** g |  |  |  |  |  |  | 
2 | CC[C@H](C)[C@H](NC(=O)[C@H](Cc1ccc(O)cc1)NC(=O)[C@H](CCCNC(=N)N)NC(=O)[C@H](CCCNC(=N)N)NC(=O)[C@H](CC(C)C)NC(=O)[C@H](CC(=O)O)NC(=O)[C@H](C)NC(=O)[C@H](C)NC(=O)[C@H](Cc1ccc(O)cc1)NC(=O)[C@H](CCC(N)=O)NC(=O)[C@H](C)NC(=O)[C@H](CC(C)C)NC(=O)[C@H](CCC(N)=O)NC(=O)[C@H](CCC(=O)O)NC(=O)[C@@H]1CCCN1C(=O)[C@@H](NC(=O)[C@H](C)NC(=O)[C@H](CCCCNC(=O)COCCOCCNC(=O)COCCOCCNC(=O)CC[C@H](NC(=O)[C@H]1CC[C@H](CNC(=O)CCCCCCCCCCCCCCCCCCC(=O)O)CC1)C(=O)O)NC(=O)[C@H](CC(=O)O)NC(=O)CNC(=O)[C@@H]1CCCN1C(=O)[C@H](Cc1ccc(O)cc1)NC(=O)[C@@H](NC(=O)[C@@H]1CCCN1C(=O)[C@H](CCC(=O)O)NC(=O)[C@H](CC(C)C)NC(=O)[C@@H]1CCCN1)C(C)C)[C@@H](C)O)C(=O)N[C@@H](CC(N)=O)C(=O)N[C@@H](CC(C)C)C(=O)N[C@@H](CC(C)C)C(=O)N[C@H](C(=O)N[C@@H](CCCNC(=N)N)C(=O)N1CCC[C@H]1C(=O)N[C@@H](CCCNC(=N)N)C(=O)N[C@@H](Cc1ccc(O)cc1)C(N)=O)[C@@H](C)O [SEQ ID NO: 29, N-epsilon11-[2-(2-{2-[2-(2-{2-[(S)-4-Carboxy-4-({trans-4-[(19-carboxynonadecanoylamino)methyl]cyclohexanecarbonyl}amino)butyrylamino]-ethoxy}ethoxy)acetylamino]ethoxy}ethoxy)acetyl][Lys11,Leu17,Leu30]hPP2-36] (H-PLEPVYPGDK([AEEA-AEEA-γGlu-Trx-C20 diacid])ATPEQLAQYAADLRRYINLLTRPRY-NH2; N-terminus and C-terminus assumed) |  |  |  |  |  |  |  |  |  | 1.20 | 1.51** g | 1.81*** g | 2.36*** g | 3.53* g | 6.78** g | 7.39
